In PMC12828004:
No constants are given. Whether binding was seen depends on the method and setting. In cells and extracts the contact can be indirect. Here binding means that the protein was enriched with, or labelled near, the bait; the list need not be complete.

Chains of the proteins cited; added tags and fusions are not shown.
UniProt P41145: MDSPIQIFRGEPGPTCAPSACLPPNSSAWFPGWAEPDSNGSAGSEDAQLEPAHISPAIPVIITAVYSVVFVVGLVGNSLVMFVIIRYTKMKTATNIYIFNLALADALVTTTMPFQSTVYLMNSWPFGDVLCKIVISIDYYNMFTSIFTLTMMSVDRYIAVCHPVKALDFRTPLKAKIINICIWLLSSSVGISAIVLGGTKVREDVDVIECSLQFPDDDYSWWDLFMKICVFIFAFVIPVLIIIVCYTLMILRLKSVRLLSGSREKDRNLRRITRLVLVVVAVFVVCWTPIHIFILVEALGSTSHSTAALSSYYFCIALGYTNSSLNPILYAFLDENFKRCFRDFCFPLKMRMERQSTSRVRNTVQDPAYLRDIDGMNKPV
UniProt O14745: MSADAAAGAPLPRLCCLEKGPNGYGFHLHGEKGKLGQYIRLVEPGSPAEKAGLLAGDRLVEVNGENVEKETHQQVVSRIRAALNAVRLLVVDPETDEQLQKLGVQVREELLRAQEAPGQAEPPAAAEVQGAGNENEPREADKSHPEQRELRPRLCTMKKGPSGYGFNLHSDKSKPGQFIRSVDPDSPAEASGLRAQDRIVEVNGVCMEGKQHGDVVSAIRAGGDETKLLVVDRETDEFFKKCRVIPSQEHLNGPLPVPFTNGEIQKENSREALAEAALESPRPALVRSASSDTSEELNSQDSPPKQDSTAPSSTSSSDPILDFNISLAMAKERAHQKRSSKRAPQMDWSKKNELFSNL

Molecular target: FLAG-tagged OPRK1, stably overexpressed in LNCaP cells (UniProt P41145)
Experiment: affinity purification with mass spectrometry; LNCaP cells stably overexpressing FLAG-tagged OPRK1 against FLAG-vector controls; lysed under denaturing conditions (so in the source); anti-FLAG magnetic beads; biological triplicates; label-free LC-MS/MS

Substance: SLC9A3R1, endogenous (from UniProt O14745 1-358)
- binding: binds
